From article PMC12140318
These are yes or no findings as the source states them, for the method shown. In cells and extracts the contact can be indirect. Some binding calls cover weakened binding; strength is not graded here. Where a sequence is shown, tags or fusion partners need not be part of it.

The chains behind the UniProt entries cited, without tags or fusion partners.
UniProt P45973: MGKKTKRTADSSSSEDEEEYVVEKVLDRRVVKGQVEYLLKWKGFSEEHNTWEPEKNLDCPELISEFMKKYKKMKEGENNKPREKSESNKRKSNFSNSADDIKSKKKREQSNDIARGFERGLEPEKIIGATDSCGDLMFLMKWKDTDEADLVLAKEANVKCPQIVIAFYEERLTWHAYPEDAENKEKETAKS

Biological target: T1, T113D (Thr→Asp) phosphorylation-mimic mutant S100A9 (pDC315-S100A9T113D-3Flag-SV40-EGFP) (human) (UniProt P06702)
T1 sequence: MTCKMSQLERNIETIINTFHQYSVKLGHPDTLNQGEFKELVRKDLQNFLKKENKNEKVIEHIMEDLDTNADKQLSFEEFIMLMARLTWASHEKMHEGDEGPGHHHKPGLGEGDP
Test: co-IP; 500 µg protein of hAFs with or without nuclear S100A9 or T113D mutant S100A9 overexpression in IP lysis buffer; Flag antibody-coupled beads, or antibodies against Flag, S100A9, CBX5 or MBD3 with protein A agarose, overnight at 4 °C; pre-immune rabbit IgG as negative control; Western blotting

binding: binds weakly
Substance: CBX5 (Chromobox protein homolog 5) (from UniProt P45973 1-191)
